In PubChem BioAssay (NCATS):
Inconclusive results, whose numbers are uncertain, are shown with a selection of clear calls. Potencies beside an inconclusive call are fits to weak or partial responses and may not hold up. Activity calls are given as the source filed them. The call rests on the fitted dose curve; in most records, active means well fitted cell-killing curve with a large enough effect; inconclusive means small, poorly fitted or top-dose-only effect, or effect the other way; inactive means no such curve, though single readings can be large or run the other way.

Experiments:
[1] = Quantitative High-Throughput drug screen in 47 multiple myeloma cell lines against the NCATS MIPE library collection: FR4_PLB cell viability assay (AID 1918924; further: nearly all actives have a fitted effect of over 35% in size); conditions: FR4_PLB myeloma cells viability, CellTiter-Glo ATP, 48 h; viability (% of DMSO control): at 45.8 µM (top of the series)
Method in brief: (§1)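 Myeloma cell lines, 500 cells per well, exposed to MIPE 4.0 library compounds for 48 h at 37C, 5% CO2. Viability from ATP by CellTiter-Glo luminescence; normalised to DMSO (100%) and media-only (0%) wells.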

[2] = Quantitative High-Throughput drug screen in 47 multiple myeloma cell lines against the NCATS MIPE library collection: Delta47_JCRB cell viability assay (AID 1918925; further: nearly all actives have a fitted effect of over 45% in size); conditions: Delta47 myeloma viability, CellTiter-Glo ATP, 48 h; viability (% of DMSO): at 45.8 µM (top of the series)
Method in brief: (§2)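 We plated 500 myeloma cells per well, pinned in MIPE 4.0 compounds, and incubated for 48 hours at 37C. ATP was then quantified with CellTiter-Glo, with DMSO and media-only wells defining 100% and 0%.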

[3] = Quantitative High-Throughput drug screen in 47 multiple myeloma cell lines against the NCATS MIPE library collection: EJM_DSMZ cell viability assay (AID 1918926; further: nearly all actives have a fitted effect of over 30% in size); conditions: EJM myeloma cell viability, CellTiter-Glo ATP, 48 h; viability, % of control: at 45.8 µM (top of the series)
Method in brief: as §2

[4] = Quantitative High-Throughput drug screen in 47 multiple myeloma cell lines against the NCATS MIPE library collection: AMO1_DSMZ cell viability assay (AID 1918927; further: nearly all actives have a fitted effect of over 30% in size); conditions: AMO1 myeloma cells viability, CellTiter-Glo ATP luminescence, 48 h; viability, % of DMSO: at 45.8 µM (top of the series)
Method in brief: as §2

[5] = Quantitative High-Throughput drug screen in 47 multiple myeloma cell lines against the NCATS MIPE library collection: ARP1_JJKsccF8 cell viability assay (AID 1918928; further: nearly all actives have a fitted effect of over 40% in size); conditions: ARP1 myeloma cells viability, CellTiter-Glo ATP, 48 h; viability: at 45.8 µM (top of the series)
Method in brief: (§3)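 Here, 48 h treatment with MIPE 4.0 agents at 37 °C preceded an ATP luminescence read. Plating density was 500 cells per well.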

[6] = Quantitative High-Throughput drug screen in 47 multiple myeloma cell lines against the NCATS MIPE library collection: ARD_JJKsccE7 cell viability assay (AID 1918929); conditions: ARD myeloma cell line viability, CellTiter-Glo, 48 h; viability: at 45.8 µM (top of the series)
Method in brief: as §2

[7] = Quantitative High-Throughput drug screen in 47 multiple myeloma cell lines against the NCATS MIPE library collection: Karpas620_DSMZ cell viability assay (AID 1918959); conditions: Karpas620 myeloma viability, CellTiter-Glo ATP luminescence, 48 h; viability (% of DMSO): at 45.8 µM (top of the series); further: nearly all actives have a fitted effect of over 30% in size
Method in brief: as §1

[8] = Quantitative High-Throughput drug screen in 47 multiple myeloma cell lines against the NCATS MIPE library collection: KMM1_JCRB cell viability assay (AID 1918960); conditions: KMM1 myeloma viability, CellTiter-Glo ATP luminescence, 48 h; viability (% of DMSO): at 45.8 µM (top of the series); further: nearly all actives have a fitted effect of over 30% in size;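 on viability (% of DMSO): 100% = DMSO-treated cells and 0% = medium-only wells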
Method in brief: as §3

[9] = Quantitative High-Throughput drug screen in 47 multiple myeloma cell lines against the NCATS MIPE library collection: Karpas417_ECACC cell viability assay (AID 1918961); conditions: Karpas417 myeloma viability, CellTiter-Glo ATP luminescence, 48 h; viability (% of DMSO): at 45.8 µM (top of the series)
Method in brief: as §1
Potency means the concentration at half of the fitted maximal effect.

| Structure (SMILES) | Potency [1] | Potency [2] | Potency [3] | Potency [4] | Potency [5] | Potency [6] | Potency [7] | Potency [8] | viability (% of DMSO) [9] | Potency [9] |
| --- | --- | --- | --- | --- | --- | --- | --- | --- | --- | --- |
| CCC(=O)O[C@]1(C(=O)CCl)[C@@H](C)C[C@H]2[C@@H]3CCC4=CC(=O)C=C[C@]4(C)[C@@]3(F)[C@@H](O)C[C@@]21C | inconclusive: 4.69 µM [cytotoxic, partial curve, poor fit] | inconclusive: 14.8 µM [cytotoxic, partial curve, poor fit] | inactive | inconclusive: 26.4 µM [cytotoxic, single point] | inconclusive: 0.0053 µM [cytotoxic, partial curve, poor fit] | inconclusive: 29.6 µM [cytotoxic, partial curve, poor fit] | inconclusive: 23.5 µM [cytotoxic, partial curve] | inconclusive: 8.33 µM [cytotoxic, partial curve, poor fit] | inconclusive: 28.8% [cytotoxic] |  |
| CCNC(=O)[C@H]1O[C@@H](n2cnc3c(N)nc(NCCc4ccc(CCC(=O)O)cc4)nc32)[C@H](O)[C@H]1O | inactive | inconclusive: 3.72 µM [cytotoxic, partial curve, poor fit] | active: 0.0332 µM |  | inconclusive: 29.6 µM [cytotoxic, single point] | inactive |  |  |  |  |
| CCOC(=O)c1ccc(C#Cc2ccc3c(c2)C(C)(C)CCS3)nc1 | inconclusive: 0.001 µM [cytotoxic] | inconclusive: 37.2 µM [cytotoxic, single point] | inconclusive: 20.9 µM [cytotoxic, single point] | inactive | inconclusive: 37.2 µM [cytotoxic, single point] |  |  |  | active: 132% |  |
| CCCCCN(C)CCC(O)(P(=O)(O)O)P(=O)(O)O | inconclusive: 0.001 µM | inconclusive: 0.0013 µM [rising, full curve, poor fit] | inactive | inconclusive: 0.0015 µM [rising, full curve, poor fit] | inconclusive: 0.0047 µM [rising, full curve, poor fit] | inactive |  | inconclusive: 0.0105 µM [cytotoxic, full curve, poor fit] | active: 78.6% |  |
| COc1ccc(-c2cc(=O)c3c(O)cc(O[C@@H]4O[C@H](CO[C@@H]5O[C@@H](C)[C@H](O)[C@@H](O)[C@@H]5O)[C@@H](O)[C@H](O)[C@@H]4O)cc3o2)cc1O | inactive | active: 14.8 µM | inconclusive: 3.32 µM [cytotoxic, full curve, poor fit] | inactive |  | inactive | inconclusive: 0.001 µM | inactive |  |  |
| C#CCN(C)CC1=Cc2ccccc2Oc2ccccc21 | inactive | inconclusive: 0.418 µM [cytotoxic, full curve, poor fit] | inactive | inconclusive: 0.003 µM [cytotoxic, full curve, poor fit] | inactive | inconclusive: 2.64 µM [cytotoxic, full curve, poor fit] |  |  |  | inconclusive: 0.0017 µM [rising, full curve, poor fit] |
| CCOC(=O)c1ncn2c1CN(C)C(=O)c1cc(F)ccc1-2 | inconclusive: 20.9 µM [cytotoxic, partial curve] | inactive | inconclusive: 33.2 µM [cytotoxic, single point] | inactive |  |  |  |  |  | inconclusive: 0.0047 µM [rising, full curve, poor fit] |
| CC1CNc2c(cccc2S(=O)(=O)N[C@@H](CCCN=C(N)N)C(=O)N2CC[C@@H](C)C[C@@H]2C(=O)O)C1 (some centres not stated) | inconclusive: 9.35 µM [rising, partial curve, poor fit] | inconclusive: 4.69 µM [cytotoxic, full curve, poor fit] | inactive | inconclusive: 20.9 µM [cytotoxic, partial curve] | inconclusive: 0.372 µM [rising, full curve, poor fit] | inactive |  | inconclusive: 23.5 µM [cytotoxic, single point] | inconclusive: 26.5% [cytotoxic] |  |
| Nc1ccc(S(N)(=O)=O)cc1 | inactive | inactive | inactive | inactive |  | inactive | inactive |  |  | inconclusive: 3.72 µM [cytotoxic, full curve, poor fit] |

Nothing new here: two of the compounds above.

| Structure (SMILES) | Potency [1] | Potency [2] | Potency [3] | Potency [4] | Potency [5] | Potency [6] | Potency [7] | Potency [8] | viability (% of DMSO) [9] | Potency [9] |
| --- | --- | --- | --- | --- | --- | --- | --- | --- | --- | --- |
| CCOC(=O)c1ccc(C#Cc2ccc3c(c2)C(C)(C)CCS3)nc1 | inconclusive: 0.001 µM [cytotoxic] | inconclusive: 37.2 µM [cytotoxic, single point] | inconclusive: 20.9 µM [cytotoxic, single point] | inactive | inconclusive: 37.2 µM [cytotoxic, single point] |  |  |  | active: 132% |  |
| CCCCCN(C)CCC(O)(P(=O)(O)O)P(=O)(O)O | inconclusive: 0.001 µM | inconclusive: 0.0013 µM [rising, full curve, poor fit] | inactive | inconclusive: 0.0015 µM [rising, full curve, poor fit] | inconclusive: 0.0047 µM [rising, full curve, poor fit] | inactive |  | inconclusive: 0.0105 µM [cytotoxic, full curve, poor fit] | active: 78.6% |  |
